Source: PMC10132202
Results are given in words; binding and its absence hold for the method and conditions named. For part of these data: In cells and extracts the contact can be indirect. Some binding calls cover weakened binding; strength is not graded here. For part of these data: Where a sequence is shown, tags or fusion partners need not be part of it. Values belong to the binder of their own block, whether it stands above or below them.

Key:
Cbp3 (S. cerevisiae) [1] = target: T1, Cbp3 (S. cerevisiae) (UniProt P21560); experiment: native gel or EMSA; mitochondria (100 μg) solubilised with 2% digitonin, 5-12% BN-PAGE, second dimension SDS-PAGE, Western blot against Cytb, Cbp3 or Cox1; comigration
T1 sequence: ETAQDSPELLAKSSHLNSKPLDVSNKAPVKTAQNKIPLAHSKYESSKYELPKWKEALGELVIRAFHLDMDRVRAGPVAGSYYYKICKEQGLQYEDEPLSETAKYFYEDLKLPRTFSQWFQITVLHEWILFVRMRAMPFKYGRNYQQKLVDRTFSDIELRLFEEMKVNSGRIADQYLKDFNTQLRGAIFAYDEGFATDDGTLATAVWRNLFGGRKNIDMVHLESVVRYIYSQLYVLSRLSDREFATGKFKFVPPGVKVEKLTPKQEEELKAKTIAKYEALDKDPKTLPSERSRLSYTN

Cbp3-HA (S. cerevisiae) = target: T2, Cbp3-HA (S. cerevisiae) (UniProt P21560); experiment: co-IP; mitochondria (500 μg) labelled with 35S-methionine, solubilised with 1% digitonin; Cbp3-HA precipitated with anti-HA antibody on Protein A-Sepharose; Cytb seen by autoradiography
T2 sequence: T1 sequence

Cbp3 (S. cerevisiae) [2] = target: T1, Cbp3 (S. cerevisiae); experiment: native gel or EMSA; complexome profiling: mitochondrial membranes (100 μg) solubilised with digitonin (3 mg/mg protein), 4-16% BN-PAGE, lane cut into 60 slices, LC-MS/MS; comigration; three biological replicates averaged
Cbp6 (S. cerevisiae) [3] = target: T3, Cbp6 (S. cerevisiae) (UniProt P07253); experiment: as above
T3 sequence: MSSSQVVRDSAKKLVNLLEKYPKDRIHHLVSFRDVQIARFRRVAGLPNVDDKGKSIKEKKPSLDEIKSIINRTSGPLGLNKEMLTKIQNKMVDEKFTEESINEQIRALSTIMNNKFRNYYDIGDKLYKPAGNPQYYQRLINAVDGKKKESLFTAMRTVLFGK

Qcr8 (S. cerevisiae) = target: T4, Qcr8 (S. cerevisiae) (UniProt P08525); experiment: as above
T4 sequence: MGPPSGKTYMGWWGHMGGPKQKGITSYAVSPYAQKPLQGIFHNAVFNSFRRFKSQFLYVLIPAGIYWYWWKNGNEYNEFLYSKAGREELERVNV

Cbp4 (S. cerevisiae) = target: T5, Cbp4 (S. cerevisiae) (UniProt P37267); experiment: as above
T5 sequence: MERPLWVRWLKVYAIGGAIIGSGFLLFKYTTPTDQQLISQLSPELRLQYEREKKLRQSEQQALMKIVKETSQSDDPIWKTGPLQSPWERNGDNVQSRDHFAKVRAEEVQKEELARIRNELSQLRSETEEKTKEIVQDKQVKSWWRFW

Qcr7 (S. cerevisiae) = target: T6, Qcr7 (S. cerevisiae) (UniProt P00128); experiment: as above
T6 sequence: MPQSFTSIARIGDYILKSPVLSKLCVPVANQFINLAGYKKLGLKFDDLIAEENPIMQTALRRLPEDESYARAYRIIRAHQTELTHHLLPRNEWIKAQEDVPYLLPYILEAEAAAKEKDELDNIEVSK

Cor2 (S. cerevisiae) = target: T7, Cor2 (S. cerevisiae) (UniProt P07257); experiment: as above
T7 sequence: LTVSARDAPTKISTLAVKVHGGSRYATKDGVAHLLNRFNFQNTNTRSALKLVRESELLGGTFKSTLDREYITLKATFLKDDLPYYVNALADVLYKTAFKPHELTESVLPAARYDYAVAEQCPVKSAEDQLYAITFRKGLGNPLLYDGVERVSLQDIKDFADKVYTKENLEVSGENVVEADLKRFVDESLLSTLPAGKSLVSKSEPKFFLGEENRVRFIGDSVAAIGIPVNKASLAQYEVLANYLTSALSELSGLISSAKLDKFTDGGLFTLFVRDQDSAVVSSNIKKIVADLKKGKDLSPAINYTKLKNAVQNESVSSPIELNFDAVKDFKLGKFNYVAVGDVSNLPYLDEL

Cbp6 (S. cerevisiae) [4] = target: T3, Cbp6 (S. cerevisiae); experiment: native gel or EMSA; mitochondria (100 μg) solubilised with 2% digitonin, 5-12% BN-PAGE, second dimension SDS-PAGE, Western blot against Cytb, Cbp3 or Cox1; comigration

binding (Cbp3 (S. cerevisiae) [1]): binds
binding (Cbp3-HA (S. cerevisiae)): binds
binding (Cbp3 (S. cerevisiae) [2]): binds
binding (Cbp6 (S. cerevisiae) [3]): binds
binding (Qcr8 (S. cerevisiae)): binds
binding (Cbp4 (S. cerevisiae)): binds
binding (Qcr7 (S. cerevisiae)): binds weakly
B1: CytbΔC13 (domain or fragment, UniProt P00163 1-372)
chain: MAFRKSNVYLSLVNSYIIDSPQPSSINYWWNMGSLLGLCLVIQIVTGIFMAMHYSSNIELAFSSVEHIMRDVHNGYILRYLHANGASFFFMVMFMHMAKGLYYGSYRSPRVTLWNVGVIIFILTIATAFLGYCCVYGQMSHWGATVITNLFSAIPFVGNDIVSWLWGGFSVSNPTIQRFFALHYLVPFIIAAMVIMHLMALHIHGSSNPLGITGNLDRIPMHSYFIFKDLVTVFLFMLILALFVFYSPNTLGHPDNYIPGNPLVTPASIVPEWYLLPFYAILRSIPDKLLGVITMFAAILVLLVLPFTDRSVVRGNTFKVLSKFFFFIFVFNFVLLGQIGACHVEVPYVLMGQIATFIYFAYFLIIVPVIST

binding (Cor2 (S. cerevisiae)): binds
B2: Cor1 (protein, UniProt P07256 27-457)
chain: AEVTQLSNGIVVATEHNPSAHTASVGVVFGSGAANENPYNNGVSNLWKNIFLSKENSAVAAKEGLALSSNISRDFQSYIVSSLPGSTDKSLDFLNQSFIQQKANLLSSSNFEATKKSVLKQVQDFEENDHPNRVLEHLHSTAFQNTPLSLPTRGTLESLENLVVADLESFANNHFLNSNAVVVGTGNIKHEDLVNSIESKNLSLQTGTKPVLKKKAAFLGSEVRLRDDTLPKAWISLAVEGEPVNSPNYFVAKLAAQIFGSYNAFEPASRLQGIKLLDNIQEYQLCDNFNHFSLSYKDSGLWGFSTATRNVTMIDDLIHFTLKQWNRLTISVTDTEVERAKSLLKLQLGQLYESGNPVNDANLLGAEVLIKGSKLSLGEAFKKIDAITVKDVKAWAGKRLWDQDIAIAGTGQIEGLLDYMRIRSDMSMMRW

binding (Cbp3 (S. cerevisiae) [1]): binds
binding (Cbp3-HA (S. cerevisiae)): binds
binding (Cbp3 (S. cerevisiae) [2]): binds
binding (Cbp6 (S. cerevisiae) [3]): binds
binding (Qcr8 (S. cerevisiae)): binds
binding (Cbp4 (S. cerevisiae)): binds
binding (Qcr7 (S. cerevisiae)): binds
B3: cytochrome b (protein, UniProt P00163 1-385)
chain: MAFRKSNVYLSLVNSYIIDSPQPSSINYWWNMGSLLGLCLVIQIVTGIFMAMHYSSNIELAFSSVEHIMRDVHNGYILRYLHANGASFFFMVMFMHMAKGLYYGSYRSPRVTLWNVGVIIFILTIATAFLGYCCVYGQMSHWGATVITNLFSAIPFVGNDIVSWLWGGFSVSNPTIQRFFALHYLVPFIIAAMVIMHLMALHIHGSSNPLGITGNLDRIPMHSYFIFKDLVTVFLFMLILALFVFYSPNTLGHPDNYIPGNPLVTPASIVPEWYLLPFYAILRSIPDKLLGVITMFAAILVLLVLPFTDRSVVRGNTFKVLSKFFFFIFVFNFVLLGQIGACHVEVPYVLMGQIATFIYFAYFLIIVPVISTIENVLFYIGRVNK

binding (Cbp6 (S. cerevisiae) [4]): binds
binding (Cbp6 (S. cerevisiae) [3]): binds
B4: Cbp3 (protein, UniProt P21560 39-335)
chain: T1 sequence

binding (Cbp3-HA (S. cerevisiae)): binds
B5: CytbΔC8 (domain or fragment, UniProt P00163 1-377)
chain: MAFRKSNVYLSLVNSYIIDSPQPSSINYWWNMGSLLGLCLVIQIVTGIFMAMHYSSNIELAFSSVEHIMRDVHNGYILRYLHANGASFFFMVMFMHMAKGLYYGSYRSPRVTLWNVGVIIFILTIATAFLGYCCVYGQMSHWGATVITNLFSAIPFVGNDIVSWLWGGFSVSNPTIQRFFALHYLVPFIIAAMVIMHLMALHIHGSSNPLGITGNLDRIPMHSYFIFKDLVTVFLFMLILALFVFYSPNTLGHPDNYIPGNPLVTPASIVPEWYLLPFYAILRSIPDKLLGVITMFAAILVLLVLPFTDRSVVRGNTFKVLSKFFFFIFVFNFVLLGQIGACHVEVPYVLMGQIATFIYFAYFLIIVPVISTIENVL
